Data: the supplement of paper PMC4635364
Structures can show the parent of a compound that is named as a salt. The list shows a part of the results. Single values are uncertain here, since repeats match poorly.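 Cells: ReNCell VM human fetal ventral-midbrain neural progenitors, differentiated mitogen-free. Blinded raters compared doublecortin-stained (early neurons) or tyrosine hydroxylase-stained (dopaminergic neurons) images with untreated wells, where 0 means no change. After repeats and both raters were averaged, compounds scoring 2 or above became hits for retesting.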

Key:
ReNCell VM [1] = assay: neuronal differentiation score (DCX+ cell fraction vs untreated, manual image score) (score (-3 to 3)); higher = more neuronal differentiation; details: 2 uM, 2 weeks
ReNCell VM [2] = assay: dopaminergic neuron differentiation score (TH+ cell fraction vs untreated, manual image score) (score (0 to 3)); higher = more TH+ dopaminergic neuron differentiation; details: 2 uM, 4 weeks, BDNF 10 ng/ml + GDNF 10 ng/ml

SMILES | neuronal differentiation score (ReNCell VM [1]; library: LOPAC) | neuronal differentiation score (ReNCell VM [1]; library: Prestwick) | dopaminergic neuron differentiation score (ReNCell VM [2]; library: LOPAC) | dopaminergic neuron differentiation score (ReNCell VM [2]; library: Prestwick) | neuronal differentiation score (ReNCell VM [1]; library: Tocriscreen) | dopaminergic neuron differentiation score (ReNCell VM [2]; library: Tocriscreen)
CN1CCN(CCCN2c3ccccc3Sc3ccc(Cl)cc32)CC1 [Prochlorperazine dimaleate] | inactive: 0 | inactive: 0 | inactive: 0 | active: 2 | – | –
OC(CCN1CCCCC1)(c1ccccc1)C1CC2C=CC1C2 (centres undefined) [Biperiden hydrochloride] | inactive: 0 | inactive: 0 | inactive: 0 | inactive: 0 | – | –
CC(=O)Oc1ccccc1C(=O)O [Acetylsalicylic acid] | inactive: 0 | inactive: 0 | inactive: 0 | inactive: 0 | – | –
CC(=O)N[C@@H](Cc1c[nH]c2ccccc12)C(=O)OCc1cc(C(F)(F)F)cc(C(F)(F)F)c1 | inactive: 0 | – | inactive: 0 | – | inactive: 1 | inactive: 0
CN(C)CCCCSC(=N)N | inactive: 0 | – | inactive: 0 | – | inactive: 0 | inactive: 0
CN(C)CCN(Cc1cccs1)c1ccccn1 [Methapyrilene hydrochloride] | inactive: 0 | inactive: 0 | inactive: 0 | inactive: 0 | – | –
CN(C)CCC(c1ccccc1)c1ccccn1 (centres undefined) [Pheniramine maleate] | inactive: 0 | inactive: 1 | inactive: 0 | inactive: 0 | – | –
COC1(C2=NCCN2)COc2ccccc2O1 (centres undefined) | inactive: 0 | – | inactive: 0 | – | inactive: 0 | inactive: 0
CN(C)CCC=C1c2ccccc2C=Cc2ccccc21 [Cyclobenzaprine hydrochloride] | inactive: 1 | inactive: 0 | inactive: 0 | inactive: 0 | – | –
CN(C)c1ccc(O)c2c1C[C@H]1C[C@H]3[C@H](N(C)C)C(O)=C(C(N)=O)C(=O)[C@@]3(O)C(O)=C1C2=O [Minocycline hydrochloride] | inactive: 0 | inactive: 0 | inactive: 0 | inactive: 0 | – | –
CC(C)(C=O)Cc1cc(C(C)(C)C)c(O)c(C(C)(C)C)c1 | inactive: 0 | – | inactive: 0 | – | inactive: 0 | inactive: 0
COC(=O)c1c(C)[nH]c(C)c1C(=O)c1ccccc1Cc1ccccc1 | inactive: 0 | – | inactive: 0 | – | inactive: 0 | inactive: 0
CCCc1c(OCCCOc2ccc(OCC(=O)O)cc2)ccc(C(C)=O)c1O | inactive: 1 | – | inactive: 0 | – | inactive: 0 | inactive: 0
Nc1nc2c(ncn2COC(CO)CO)c(=O)[nH]1 [Ganciclovir] | inactive: 0 | inactive: 0 | inactive: 0 | inactive: 0 | – | –
CCN(CC)CCOC(=O)c1ccc(N)cc1 [Procaine hydrochloride] | inactive: 0 | inactive: 0 | inactive: 0 | inactive: 0 | – | –
O=C(O)C1(C(=O)O)CCC1.[NH2-].[NH2-].[Pt+2] [Carboplatin] | inactive: 0 | – | inactive: 0 | – | inactive: 0 | inactive: 0
Cc1nc2ccccn2c(=O)c1CCN1CCC(C(=O)c2ccc(F)cc2)CC1 [Pirenperone] | active: 2 | inactive: 0 | inactive: 0 | inactive: 0 | – | –
O=C(c1ccc(F)cc1)C1CCN(CCn2c(=O)[nH]c3ccccc3c2=O)CC1 [Ketanserin tartrate] | inactive: 0 | – | inactive: 0 | – | inactive: 0 | inactive: 0
CC[N+](CC)(CC)CCOc1cccc(OCC[N+](CC)(CC)CC)c1OCC[N+](CC)(CC)CC [Gallamine triethiodide] | inactive: 0 | inactive: 0 | inactive: 0 | inactive: 0 | – | –
NS(=O)(=O)c1cc2c(cc1Cl)N=CNS2(=O)=O [Chlorothiazide] | inactive: 0 | inactive: 0 | inactive: 0 | inactive: 0 | – | –
CCc1c(C)[nH]c2c1C(=O)C(CN1CCOCC1)CC2 (centres undefined) [Molindone hydrochloride] | inactive: 0 | inactive: 0 | inactive: 0 | inactive: 0 | – | –
COc1cc(N)c(Cl)cc1C(=O)NC1CCN(CCCOc2ccc(F)cc2)CC1OC (centres undefined) [Cisapride] | – | inactive: 0 | – | inactive: 0 | inactive: 0 | inactive: 0
CC1CCN(CC[C@H]2CCCN2S(=O)(=O)c2cccc(O)c2)CC1 | inactive: 0 | – | inactive: 0 | – | inactive: 0 | inactive: 0
OCCN1CCN(CCCN2c3ccccc3Sc3ccc(C(F)(F)F)cc32)CC1 [Fluphenazine dihydrochloride] | inactive: 0 | inactive: 0 | inactive: 0 | inactive: 0 | – | –
NC(=O)c1ncn([C@@H]2O[C@H](CO)[C@@H](O)[C@H]2O)n1 [Ribavirin] | inactive: 0 | inactive: 0 | inactive: 0 | inactive: 0 | – | –
O=[N+]([O-])c1cccc2c(Br)[nH]nc12 [3-Bromo-7-nitroindazole] | inactive: 0 | – | inactive: 0 | – | inactive: 0 | inactive: 0

As entered above:
dopaminergic neuron differentiation score (ReNCell VM [2]; library: LOPAC) with `CN(C)CCC(c1ccccc1)c1ccccn1` (centres undefined) [Pheniramine maleate] is entered as inactive: 0
dopaminergic neuron differentiation score (ReNCell VM [2]; library: LOPAC) with `CC[N+](CC)(CC)CCOc1cccc(OCC[N+](CC)(CC)CC)c1OCC[N+](CC)(CC)CC` [Gallamine triethiodide] is entered as inactive: 0
